# Reference: patent US11590110B2, “Compositions and methods for reactivating latent immunodeficiency virus using a GSK-3 inhibitor” (priority 2017, dated 2023)
# System: NF-κB (p65)
# Assay: Example 5: NF-κB (p65) binding with target DNA sequences, ELISA
# Format: cell-based, human
# Details: 250 nM inhibitor
smiles,measurement,value
CC(C)n1nc(-c2cc3cc(O)ccc3[nH]2)c2c(N)ncnc21 [PP242],nuclear p65 and dsDNA binding activity on addition to anti-CD3/CD28 coated beads,only a diminution
